Measured values: PubChem BioAssay AID1508600 (Functional Genomics Laboratory (NCATS/FGL), 2020)
Among all 53,000 sequences or so, about 3,700 (7%) were called active.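 Rule for the calls: active = gene knockdowns whose robust z-score for IL-1 alpha signal is at least 2 or at most -2, so actives lie on both sides; inactive = the rest.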 Some of the results follow.

Experiment: Components of the Cytosolic LPS Sensing Pathway: Gene Identification via Genome-wide siRNA Screen;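 note: robust z of the log signal after scaling to non-targeting control siRNA wells of the plate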
Conditions: RAW264.7 macrophages, IL-1a HTRF, actives lie on both sides, screened at 100 nM (by protocol), cells primed 5 h with Pam3CSK4 first
Procedure, shortened: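 Read-out: IL-1a HTRF on supernatant, divided by plate negative-control median ×100, log-transformed and converted to robust z-score. Cells were RAW264.7 given 100 nM siRNA, Pam3CSK4-primed 5 hours, then LipidA-transfected 24 hour.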
With GAAAGUGUUCAAUAUACUGTT against Klra10 the z-score was inactive: 0.4. For CUACUUCACUUGCAUAACUTT against Dnajc2, the z-score was inactive: -0.564. With GUGUGCUUGAUGGAGACCATT against Riiad1 the z-score was active: 2.25. With GGAGCUGAGAACUAUUAGATT against Abr the z-score was inactive: -0.238. For GCAUGCAUGUAUUUUUUAGTT against Itpripl2, the z-score was inactive: 0.913. With GGACAAUGCUAAUGAGACCTT against Gcsam the z-score was inactive: -0.176. In the case of GCAUGAGGAUUGCACUAGGTT against Shbg, the z-score is reported as inactive: -0.742. In the case of GGAUGUCAAGGACACAGUATT against Olfr73, the z-score is reported as inactive: -1.04. In the case of GCCGAUCUAAGAAAAACAATT against Tro, the z-score is reported as inactive: -0.401. In the case of GGGAUCAAAUUACACCUGUTT against Phox2a, the z-score is reported as inactive: -0.499. With CCCACAUCGAUGGUUAGCUTT against Cep128 the z-score was inactive: 0.977. With GGCUCCUCAAAGGUCAAGUTT against Mybpc3 the z-score was inactive: 0.986. With CCACAUGAUCCUAACUUUGTT against Pqbp1 the z-score was inactive: -0.157. With GCAAUGUCUUCAAUGAUCATT against Ccdc158 the z-score was inactive: -0.251. In the case of GGCUAUGAAUAAACUUUUCTT against Olfr1016, the z-score is reported as inactive: 0.429. In the case of GGGAUCACAGAUCUCUCUGTT against Cnksr3, the z-score is reported as inactive: 1.1. For GGAAAGACUACAAGAAUUUTT against Syce2, the z-score was inactive: 0.711. With GGAGGUGCAUUAUAAGAAUTT against Fhl1 the z-score was inactive: 0.686. With CGAAGACGGUGACUACUAUTT against Bicd2 the z-score was inactive: 1.67. For GCCCUUUCGCCUAUGGUUUTT against Tedc1, the z-score was inactive: 0.931. In the case of GCUAUUGAGUUAUCGUUGCTT against Stam2, the z-score is reported as inactive: 0.715. For CGGGCAGUACUAUGAUUUGTT against Ppp1cc, the z-score was active: 2.09. In the case of GGAGAAAUCGGAUGUGAAUTT against Smtnl1, the z-score is reported as inactive: 0.214. With GGUUUCGUCUUGAUAUCUATT against Trpc1 the z-score was inactive: -0.417. In the case of CCGGACUCAGGGUUAAAGUTT against Apoc4, the z-score is reported as inactive: 0.952. In the case of GGUUGUUUAUACCUGUGAUTT against Cfh, the z-score is reported as inactive: -0.292. In the case of GGGAAAUGACAAUUGAAAGTT against Tab3, the z-score is reported as inactive: 1.18. With CCUUAUUGACAGACGAGAGTT against Mob1b the z-score was inactive: 0.0129. In the case of GGCCGAUUCCAUUGUACAGTT against Fam177a, the z-score is reported as active: 3.54. For GCUGUCGUUGAAGGCAUUGTT against Olfr317, the z-score was inactive: -0.828. For GGGACAUUUCUGUAUUGAGTT against Psg21, the z-score was inactive: -0.446. With GGUAAAAAAUGCUUUCAACTT against Olfr1008 the z-score was inactive: 0.696. For GGAGAAGUUUAAGGAGAUUTT against Dnajb5, the z-score was inactive: 1.54. With CGAUUACUUGGAAAACCAATT against Ifne the z-score was inactive: -1.21. In the case of CGGACUAUUGGAGACCAACTT against Gpsm2, the z-score is reported as active: 2.16. For GCCUUAAUACUCACCAGGGTT against Zscan2, the z-score was inactive: 0.702. In the case of GCAAGACUUGCUGAUAGAGTT against Cyp2j6, the z-score is reported as inactive: 1.44. For GGGUUAAAUGGUUUUAACATT against E2f7, the z-score was inactive: 0.505. For CCCAUUAAAAAUCGUUCUGTT against Rcl1, the z-score was inactive: 0.0355. In the case of GCUGGCUUCUAUACUUCCCTT against Smgc, the z-score is reported as inactive: 0.0298. For ACACUUGCAUCAUCUUUGCTT against Olfr740, the z-score was inactive: 1.42. In the case of GGAAUUAUGCUUCCAUCAUTT against Mycl, the z-score is reported as inactive: -0.225. In the case of GGUCAACAUUAAAAUACUGTT against Map2k4, the z-score is reported as inactive: -0.0649. With GGAGUACGAGGAGAUUAUGTT against Ubtf the z-score was inactive: 0.844. In the case of GCGGCAAUUCAAAUGAGUCTT against Rnf14, the z-score is reported as inactive: 1.2. With GGACUUCCUAUGAAGACAUTT against Neu4 the z-score was inactive: 0.374. In the case of GCUAUCAAUACCUCAGUUATT against Syt2, the z-score is reported as inactive: 0.369. For GACCUGUUUUGUCUUUUGCTT against Ms4a4c, the z-score was inactive: 1.34. In the case of CGGGAUAUCAUCUGAAUAATT against Disp1, the z-score is reported as inactive: 0.19. With CCAGCUUCAUGCGUUUAAATT against Stx16 the z-score was inactive: 1.4. For GGAAUCAUCUGAACACACATT against Ctcf, the z-score was active: -2.18. For GCCUUCUGGCAAGAAUCUUTT against Krtap9-3, the z-score was inactive: 1.21. In the case of GGCUCCUCGGUUUAAAGGUTT against Usp45, the z-score is reported as inactive: -0.217. With GGCCGAAGAAGGAGAAUUGTT against Gdap10 the z-score was inactive: 1.29. With GCGACGGAAGUCUUUAUUATT against Nostrin the z-score was inactive: -0.163. For GGAACUAUACCAAAGGCAATT against Cfap65, the z-score was inactive: -0.198. For GGAACGGAUACGGUUUCAUTT against Ybx1, the z-score was inactive: 0.902. For GGGUCUUGAAUACAGAGAGTT against Qsox1, the z-score was inactive: -0.838. With GCGAGCGGCUGUCUAUUAATT against Nkiras2 the z-score was inactive: -0.277. With GGUCCUUUAAGGUCGAUCATT against Mllt3 the z-score was inactive: -0.546. With GGCAAGUUUCCUCUGCCUUTT against Gbgt1 the z-score was inactive: -0.614. In the case of CGGCACACUAAGAAACGGATT against Odf3l1, the z-score is reported as inactive: 0.152. In the case of GGUCAAGGCUGUCAAGUUGTT against Wdr45b, the z-score is reported as inactive: -0.13. With GGCCCACAAGAAGAACAAGTT against Zfp423 the z-score was inactive: 1.29. In the case of CCUAAGACCCUCAGAAAACTT against Pcdhb7, the z-score is reported as inactive: 0.291. With GGUGUAGCAACCAACCCAATT against Tpsg1 the z-score was inactive: -1.88. In the case of GGUACAAGAUAUUGUGAAATT against Fgd3, the z-score is reported as inactive: 0.0612. For GUGCUUCUGAUCUCCUACATT against Olfr223, the z-score was inactive: 1. In the case of GCAGAAGACCGCUUAAACATT against Cspp1, the z-score is reported as inactive: 0.658. For GGCAGAGCCAGAAAAAUUGTT against Slc30a1, the z-score was inactive: 0.306. With CCACUCACUUUCGUAUCUUTT against Fancm the z-score was inactive: -0.188. In the case of GGCCAGCUACAAACUGCCUTT against Ydjc, the z-score is reported as inactive: 0.92. In the case of GGGCAAGGUGAAGCAUUAATT against Numa1, the z-score is reported as inactive: -1.68. With GGGAGCUUUCCAGUAACUGTT against Rfng the z-score was inactive: 0.743. In the case of GGUUCAGUGCUUUGUGUUCTT against Il2rg, the z-score is reported as inactive: -0.541. In the case of GGAGCAGAUGUCAACAAAATT against Invs, the z-score is reported as inactive: -1.7. In the case of GCUGCUUGCAUGCGUUACUTT against Nacc2, the z-score is reported as inactive: 1.31. With GGUGCAGUUUUAUACCUAUTT against Rtn4rl1 the z-score was inactive: 0.719. In the case of GGGAGAAAUACUCUUGUUATT against Atg4a, the z-score is reported as inactive: -0.634. In the case of GGACAGAGGACAAGCAGAATT against Ghrl, the z-score is reported as inactive: -0.532. In the case of UUUCCUGGAACUCGACAGGTT against Wdr34, the z-score is reported as inactive: 0.487. With GGAGAAGUCCAUACGGAUCTT against Gpr18 the z-score was inactive: 0.184. With CCAUCCUGCUGUUUGCAUCTT against AB124611 the z-score was inactive: -1.87. With GGCGCAUUCCUCUGUAGAATT against Ddc the z-score was inactive: -0.0597. With GGAAACAAGGUCUCUGUUUTT against Mpzl2 the z-score was inactive: -1.47. For GGUGCUUCGUUUAUUACCATT against Lig3, the z-score was inactive: 0.537. For GGAACAAACCAAGUUCACATT against Kcnip2, the z-score was inactive: -0.66. With CCUCAUAAAUUCACUCUCCTT against Bpifa2 the z-score was inactive: 0.984. In the case of “GGACUUAAGAAAGAUGUGUTT against A130010J15Rik”, the z-score is reported as inactive: -0.877. In the case of CCAAUCGGAAAUUUUACUGTT against Sh3yl1, the z-score is reported as inactive: 0.182. In the case of GGGCGACUUUAGCUUUUAUTT against Pced1b, the z-score is reported as active: 2.51. With GGAGAAGAGGACAGAAGCCTT against Akt1s1 the z-score was inactive: 0.757. For GGAGAGAAAAAAGUCUCUCTT against Olfr66, the z-score was active: 2.55. For GGAGCAGUCUCCUUUUUGUTT against Pcnp, the z-score was active: 2.14. For GGCAGAAAUACAAUCUUCGTT against Umodl1, the z-score was inactive: 0.98. In the case of GGACAUCAAGUUCUUGCCATT against Hspa5, the z-score is reported as inactive: -0.478. For GGAGAUUCGAAGCCUUACUTT against Irak4, the z-score was inactive: -1.76. With GCUUUGUCAAUAAGCCCACTT against Shc1 the z-score was inactive: 1.98. In the case of GGCACUUGAAUUUCUAAGUTT against Cbx5, the z-score is reported as inactive: 0.0672. For GCAGCAUCUACAUGCCGCUTT against Jade3, the z-score was inactive: 1.43. With GGUACGAAGAAGACAAAAATT against Tnfsf9 the z-score was inactive: -0.0411. For GGUGAGAAGCCUUACCUCUTT against Zfp775, the z-score was inactive: -0.167. In the case of GGUCAGCAUUUGCUAUGAATT against Tmsb15l, the z-score is reported as active: -2.02. With CGUGAACUUUCAGAGCAGGTT against Rrp36 the z-score was inactive: 0.124. With GCUAAUAUGCCACUGCCCGTT against Pls3 the z-score was inactive: 1.55. With GGCCCAGUGACUAUGGAAUTT against Mpnd the z-score was active: -2.68. With GCUAAAUUUGGGCACUAAUTT against Tvp23b the z-score was inactive: -0.708. With GGAUGGCCUGGCCUUCAAUTT against Sptb the z-score was inactive: 1.85.
